For five compounds, survivor count and T/C results are on record in PubChem BioAssay AID330 (DTP/NCI, 2004).

The subject of this experiment is P388 leukemia ip, CD2F1 mice, survival T/C. Briefly: NCI In Vivo Anticancer Drug Screen. Data for tumor model P388 Leukemia (intraperitoneal) in CD2F1 (CDF1) mice. The conditions noted are these: T/C endpoint: median survival time, higher T/C = longer survival.

The list shows only some results of the screen, not a fair sample: it gathers tests that were run many times, whatever their T/C, doses with no T/C, and many T/C values between a quarter and a half above the control. Further doses and runs are listed elsewhere. T/C: endpoint of the treated group in % of that of the vehicle group. Some doses have a count of surviving animals in place of a T/C: the source files T/C as zero there, which appears to mark a toxic dose or a test without result, not a measured value. Counts of survivors are from the toxicity check (mostly the fifth day) where no day follows; animals may have died later. Schedule codes are those of the source, taken here to give the interval after Q, in days (D) or hours (H), and the number of doses after X. Where survival is the endpoint, this PubChem deposit counts one and a half times the control or more as active, and values a quarter to a half above the control carry no call in these data; other NCI protocols may use other cut-offs. Some T/C values carry the count of animals alive at the toxicity check (mostly the fifth day); where none is given, no animal had died by that day.

On to `O=C1C=CC(=O)C1=Cc1ccc(O)cc1`, for which the survivor count reads like this: (dose: 25.0 mg/kg/injection, schedule: Q04DX002 (ip), vehicle: saline with Tween-80) 0 of 6; (dose: 50.0 mg/kg/injection, schedule: Q04DX002 (ip), vehicle: saline with Tween-80) 0 of 6; (dose: 100.0 mg/kg/injection, schedule: Q04DX002 (ip), vehicle: saline with Tween-80) 0 of 6.

As for `CN(C)C1CS(=O)(=O)C1c1ccccc1` (configuration not stated), for the setting “dose: 50.0 mg/kg/injection, schedule: Q01DX009 (ip), vehicle: saline with Tween-80”, the T/C was 137 % of control.

As to `CNc1nc2c(N)ncnc2n1C1OC(CO)C(O)C1O` (configuration not stated), the T/C is 128 % of control (dose: 25.0 mg/kg/injection, schedule: Q01DX009 (ip), vehicle: suspension in saline) and 149 % of control (dose: 50.0 mg/kg/injection, schedule: Q01DX009 (ip), vehicle: suspension in saline). Also, the survivor count reads like this: (dose: 100.0 mg/kg/injection, schedule: Q01DX009 (ip), vehicle: saline with Tween-80) 1 of 3; (dose: 200.0 mg/kg/injection, schedule: Q01DX009 (ip), vehicle: saline with Tween-80) 0 of 3; (dose: 400.0 mg/kg/injection, schedule: Q01DX009 (ip), vehicle: saline with Tween-80) 0 of 3.

With `Cc1[nH]ccc(=O)c1O`, the T/C is 129 % of control (dose: 50.0 mg/kg/injection, schedule: Q01DX009 (ip), vehicle: saline); 133 % of control (dose: 64.0 mg/kg/injection, schedule: Q01DX009 (ip), vehicle: saline with Tween-80); 125 % of control (dose: 100.0 mg/kg/injection, schedule: Q01DX009 (ip), vehicle: saline); 135 % of control (dose: 128.0 mg/kg/injection, schedule: Q01DX009 (ip), vehicle: saline with Tween-80); 133 % of control (dose: 200.0 mg/kg/injection, schedule: Q01DX009 (ip), vehicle: saline); 132 % of control (dose: 256.0 mg/kg/injection, schedule: Q01DX009 (ip), vehicle: saline with Tween-80). In addition, the T/C (dose: 400.0 mg/kg/injection, schedule: Q01DX009 (ip), vehicle: saline) is 144 % of control [5 of 6 alive].

Consider `COc1ccc(/C=C/C(C)=O)c(OC)c1`, for which the survivor count (dose: 400.0 mg/kg/injection, schedule: Q01DX001 (ip), vehicle: Klucel (hydroxypropylcellulose) (HPC)) was 0 of 6.
